Where a chain is given by its changes, count along the chain named. Results are given in words; binding and its absence hold for the method and conditions named. Some entries that bind do so weakly or less than the wild type. For some assays here: Where a sequence is shown, tags or fusion partners need not be part of it.

Sequences of proteins named here, by UniProt entry; tags and fusion partners are left off. Residues count along the entry.
UniProt P22607, residues 23-375: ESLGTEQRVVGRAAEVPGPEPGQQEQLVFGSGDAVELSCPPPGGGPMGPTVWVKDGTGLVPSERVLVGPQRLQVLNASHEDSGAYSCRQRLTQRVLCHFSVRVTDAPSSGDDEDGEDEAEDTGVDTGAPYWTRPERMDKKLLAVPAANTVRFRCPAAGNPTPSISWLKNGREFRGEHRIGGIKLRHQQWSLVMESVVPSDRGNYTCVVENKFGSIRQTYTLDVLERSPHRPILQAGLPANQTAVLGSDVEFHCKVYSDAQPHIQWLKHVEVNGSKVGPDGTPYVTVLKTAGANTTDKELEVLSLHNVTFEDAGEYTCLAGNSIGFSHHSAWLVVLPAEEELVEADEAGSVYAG

B1: α1-α2 variant 15 (ligand)
chain: EPHSLRYNLTVLSWDGSVQSGFLTEVHLDGQPFLRCDRQKCRAKPQGQWAEDVLGNKTWDRETRDLTGWGKDLRMTLAHIKDQKEGLHSLQEIRVCEIHEDNSTRSSQHFYYDGELFLSQNLETNEWTMPQSSRAQTLAMNVRNFLKEDAMETDTHYHAMRADCLQELRRYLKSGVVLRRTVPPMVQVTRSEASGGSGDRVTITCRASQDVSTAVAWYQQKPGKAPKLLIYSASFLYSGVPSRFSGSGSGTDFTLTISSLQPEDFATYYCQQSYTTPPTFGQGTKVEIKGGSSRSSSSGGGGSGGGGEVQLVESGGGLVQPGGSLRLSCAASGFTFTSTGISWVRQAPGKGLEWVGRIYPTNGSTNYADSVKGRFTISADTSKNTAYLQMNSLRAEDTAVYYCARTYGIYDLYVDYTEYVMDYWGQGTLVTVSSGGSSRSSSSGGGGSGGGGDIQMTQSPSSLSASGGSGQITVTCRASGFYPWNITLSWRQDGVSLSHDTQQWGDVLPDGQGTYQTWVATRISQGEEQRFTCYMEHSGQHSTHPVPSGKGSHHHHHH
B2: α1-α2 variant 16 (ligand)
chain: B1 chain with N125L
B3: α1-α2 variant 17 (ligand)
chain: B1 chain with G68L, N125L
B4: WED-MICA (ligand)
chain: B1 chain with N125K, R161H
B5: α1-α2 variant 18 (ligand)
chain: B1 chain with S20P, G68L, N125L
B6: WT α1-α2 soluble MICA protein (Example 3) (ligand)
chain: B1 chain with W69N, N125K, E152K, D154K, R161H
B7: MICA-α3-iFv.1 (designed binder)
chain: EPHSLRYNLTVLSWDGSVQSGFLTEVHLDGQPFLRCDRQKCRAKPQGQWAEDVLGNKTWDRETRDLTGNGKDLRMTLAHIKDQKEGLHSLQEIRVCEIHEDNSTRSSQHFYYDGELFLSQNLETKEWTMPQSSRAQTLAMNVRNFLKEDAMKTKTHYHAMHADCLQELRRYLKSGVVLRRTVPPMVQVTRSEASGDRVTITCRASQDVSTAVAWYQQKPGKAPKLLIYSASFLYSGVPSRFSGSGSGTDFTLTISSLQPEDFATYYCQQSYTTPPTFGQGTKVEIKGGSSRSSSSGGGGSGGGGEVQLVESGGGLVQPGGSLRLSCAASGFTFTSTGISWVRQAPGKGLEWVGRIYPTNGSTNYADSVKGRFTISADTSKNTAYLQMNSLRAEDTAVYYCARTYGIYDLYVDYTEYVMDYWGQGTLVTVSSGGSSRSSSSGGGGSGGGGDIQMTQSPSSLSASGQITVTCRASGFYPWNITLSWRQDGVSLSHDTQQWGDVLPDGQGTYQTWVATRISQGEEQRFTCYMEHSGQHSTHPVPSGKGSHHHHHH
B8: ULBP1-α3-iFv.2 (designed binder)
chain: EPHCLCYDFIITPKSRPEPQWCEVQGLVDERPFLHYDCVNHKAKAFASLGKKVNVTKTWEEQTETLRDVVDFLKGQLLDIQVENLIPIEPLTLQARMSCEHEAHGHGRGSWQFLFNGQKFLLFDSNNRKWTALHPGAKKMTEKWEKNRDVTMFFQKISLGDCKMWLEEFLMYWEQMLDPTKPPMVQVTRSEASGGSGDRVTITCRASQDVSTAVAWYQQKPGKAPKLLIYSASFLYSGVPSRFSGSGSGTDFTLTISSLQPEDFATYYCQQSYTTPPTFGQGTKVEIKGGSSRSSSSGGGGSGGGGEVQLVESGGGLVQPGGSLRLSCAASGFTFTSTGISWVRQAPGKGLEWVGRIYPTNGSTNYADSVKGRFTISADTSKNTAYLQMNSLRAEDTAVYYCARTYGIYDLYVDYTEYVMDYWGQGTLVTVSSGGSSRSSSSGGGGSGGGGDIQMTQSPSSLSASGGSGQITVTCRASGFYPWNITLSWRQDGVSLSHDTQQWGDVLPDGQGTYQTWVATRISQGEEQRFTCYMEHSGQHSTHPVPSGKGSHHHHHH
B9: ULBP3-α3-iFv.2 (designed binder)
chain: EPHSLWYNFTIIHLPRHGQQWCEVQSQVDQKNFLSYDCGSDKVLSMGHLEEQLYATDAWGKQLEMLREVGQRLRLELADTELEDFTPSGPLTLQVRMSCECEADGYIRGSWQFSFDGRKFLLFDSNNRKWTVVHAGARRMKEKWEKDSGLTTFFKMVSMRDCKSWLRDFLMHRKKRLEPTAPPMVQVTRSEASGGSGDRVTITCRASQDVSTAVAWYQQKPGKAPKLLIYSASFLYSGVPSRFSGSGSGTDFTLTISSLQPEDFATYYCQQSYTTPPTFGQGTKVEIKGGSSRSSSSGGGGSGGGGEVQLVESGGGLVQPGGSLRLSCAASGFTFTSTGISWVRQAPGKGLEWVGRIYPTNGSTNYADSVKGRFTISADTSKNTAYLQMNSLRAEDTAVYYCARTYGIYDLYVDYTEYVMDYWGQGTLVTVSSGGSSRSSSSGGGGSGGGGDIQMTQSPSSLSASGGSGQITVTCRASGFYPWNITLSWRQDGVSLSHDTQQWGDVLPDGQGTYQTWVATRISQGEEQRFTCYMEHSGQHSTHPVPSGKGSHHHHHH
B10: ULBP4-α3-iFv.2 (designed binder)
chain: EPHSLCFNFTIKSLSRPGQPWCEAQVFLNKNLFLQYNSDNNMVKPLGLLGKKVYATSTWGELTQTLGEVGRDLRMLLCDIKPQIKTSDPSTLQVEMFCQREAERCTGASWQFATNGEKSLLFDAMNMTWTVINHEASKIKETWKKDRGLEKYFRKLSKGDCDHWLREFLGHWEAMPEPTVSPPMVQVTRSEASGGSGDRVTITCRASQDVSTAVAWYQQKPGKAPKLLIYSASFLYSGVPSRFSGSGSGTDFTLTISSLQPEDFATYYCQQSYTTPPTFGQGTKVEIKGGSSRSSSSGGGGSGGGGEVQLVESGGGLVQPGGSLRLSCAASGFTFTSTGISWVRQAPGKGLEWVGRIYPTNGSTNYADSVKGRFTISADTSKNTAYLQMNSLRAEDTAVYYCARTYGIYDLYVDYTEYVMDYWGQGTLVTVSSGGSSRSSSSGGGGSGGGGDIQMTQSPSSLSASGGSGQITVTCRASGFYPWNITLSWRQDGVSLSHDTQQWGDVLPDGQGTYQTWVATRISQGEEQRFTCYMEHSGQHSTHPVPSGKGSHHHHHH
B11: ULBP2-α3-iFv.2 (designed binder)
chain: EPHSLCYDITVIPKFRPGPRWCAVQGQVDEKTFLHYDCGNKTVTPVSPLGKKLNVTTAWKAQNPVLREVVDILTEQLRDIQLENYTPKEPLTLQARMSCEQKAEGHSSGSWQFSFDGQIFLLFDSEKRMWTTVHPGARKMKEKWENDKVVAMSFHYFSMGDCIGWLEDFLMGMDSTLEPSAGAPPMVQVTRSEASGGSGDRVTITCRASQDVSTAVAWYQQKPGKAPKLLIYSASFLYSGVPSRFSGSGSGTDFTLTISSLQPEDFATYYCQQSYTTPPTFGQGTKVEIKGGSSRSSSSGGGGSGGGGEVQLVESGGGLVQPGGSLRLSCAASGFTFTSTGISWVRQAPGKGLEWVGRIYPTNGSTNYADSVKGRFTISADTSKNTAYLQMNSLRAEDTAVYYCARTYGIYDLYVDYTEYVMDYWGQGTLVTVSSGGSSRSSSSGGGGSGGGGDIQMTQSPSSLSASGGSGQITVTCRASGFYPWNITLSWRQDGVSLSHDTQQWGDVLPDGQGTYQTWVATRISQGEEQRFTCYMEHSGQHSTHPVPSGKGSHHHHHH
B12: ULBP6-α3-iFv.2 (designed binder)
chain: B11 chain with R78L, F115I, I119T, V149D, F157I
B13: His-avitag-natural NKG2D (receptor)
chain: EPHHHHHHGLNDIFEAQKIEWHENSLFNQEVQIPLTESYCGPCPKNWICYKNNCYQFFDESKNWYESQASCMSQNASLLKVYSKEDQDLLKLVKSYHWMGLVHIPTNGSWQWEDGSILSPNLLTIIEMQKGDCALYASSFKGYIENCSTPNTYICMQRTV
modifications: biotin on the avitag sequence (BirA)

The first assay concerns the target T1, murine NKG2D-Fc (mouse) (UniProt O54709).
T1 sequence (looked up): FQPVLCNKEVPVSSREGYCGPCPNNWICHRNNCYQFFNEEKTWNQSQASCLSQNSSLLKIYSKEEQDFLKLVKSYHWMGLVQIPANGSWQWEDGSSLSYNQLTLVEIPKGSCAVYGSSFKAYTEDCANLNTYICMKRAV
The assay is described as follows: competition ELISA with murine NKG2D-Fc. A general note: An ELISA detects its analyte on a solid surface through an enzyme-linked reagent.
Take B1: the binding result is given as “binds”.
As for B2, the binding result is “binds”.
The same measure, in the same setting: the result for B3 reads “binds”; that for B4, “binds”.
On to B5, for which the binding result was “binds”.
Still for that read-out and setting: then B6, with “binds”.

A further assay concerns the target FGFR3 (plate-coated) (UniProt P22607). Kind of assay: ELISA on FGFR3-coated wells, detection with NKG2D-Fc.
Turning to B7, the binding result is “binds”.
As to B8, the binding result is “binds”.
In the case of B9, the binding entry was “binds”.
Consider B10, for which the binding result is reported as “binds”.
Consider B11, for which the binding result is listed as “binds”.
With B12, the binding entry is reported as “binds”.

For another assay, the target named is T1, murine NKG2D-Fc (mouse). The assay is described as follows: competition ELISA with mouse NKG2D-Fc on plate-coated MICA.
As for B1, the binding result is listed as “binds”.
Turning to B2, the binding result is given as “binds”.
Still for that read-out and setting: then B3, with “binds”; and B5, with “binds”.

In the next assay the target is FGFR3 (plate-coated) (UniProt P22607). Kind of assay: ELISA on FGFR3-coated wells, detection with NKG2D-Fc and anti-Fc-HRP.
B7: the binding result is on record as “binds”.
Still for that read-out and setting: then B8, with “binds”.
With B9, the binding result is reported as “binds”.
With B10, the binding result is on record as “binds”.
Turning to B11, the binding entry was “binds”.
For the molecule B12, the binding entry is “binds”.

Another assay has as its target MICA-Fc. The assay is described as follows: ELISA: ligand-Fc coated at 2 ug/ml, biotinylated NKG2D ectodomain titrated, streptavidin-HRP.
As to B13, the binding entry is reported as “binds”.

The target of a further assay is FGFR3 (plate-coated) (UniProt P22607). The assay is described as follows: ELISA: FGFR3 coated at 2 ug/ml, protein titrated, bound protein detected with NKG2D-Fc and anti-Fc-HRP.
Regarding B7, the binding entry is “binds”.
With B8, the binding result is “binds”.
Same read-out and setting: then B9, with “binds”.
Still for that read-out and setting: then B10, with “binds”; and B11, with “binds”; and B12, with “binds”.

The target in another assay is T1, murine NKG2D-Fc (mouse). Kind of assay: competition ELISA: protein titrated against mouse NKG2D-Fc binding to plate-coated MICA (competitor), detected with anti-Fc-HRP.
As for B4, the binding result is “binds”.
The same measure, in the same setting: the result for B6 reads “binds”.

The next assay deals with T1, murine NKG2D-Fc (mouse). Kind of assay: competition ELISA: variant titrated against mouse NKG2D-Fc binding to plate-coated MICA (competitor), detected with anti-Fc-HRP.
As to B1, the binding entry is listed as “binds”.
With B2, the binding result is given as “binds”.
Still for that read-out and setting: the result for B3 reads “binds”; that for B5, “binds”.

The values are drawn from patent US20180134765A1.
